Measured values published in PMC7819943, “Rice protein-binding microarrays: a tool to detect cis-acting elements near promoter regions in rice”.
Some of the results follow.

Target: T1, OsSMF1 (Oryza sativa, UniProt Q6ZLB0 1-436)
T1 sequence: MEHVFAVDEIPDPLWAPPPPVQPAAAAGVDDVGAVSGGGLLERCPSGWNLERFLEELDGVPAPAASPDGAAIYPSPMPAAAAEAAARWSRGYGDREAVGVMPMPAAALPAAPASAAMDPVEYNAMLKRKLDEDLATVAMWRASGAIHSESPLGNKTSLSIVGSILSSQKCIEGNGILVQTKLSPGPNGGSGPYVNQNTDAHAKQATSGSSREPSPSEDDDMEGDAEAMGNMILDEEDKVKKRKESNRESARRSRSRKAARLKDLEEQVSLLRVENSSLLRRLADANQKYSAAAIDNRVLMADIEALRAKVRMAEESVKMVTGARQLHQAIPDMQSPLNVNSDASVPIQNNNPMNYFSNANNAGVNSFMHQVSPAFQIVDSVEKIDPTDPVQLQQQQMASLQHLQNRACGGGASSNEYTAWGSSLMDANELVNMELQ
Experiment: protein-binding microarray (RPBM); PBS, 2% BSA, 51.3 ng/ul salmon testes DNA, 50 uM zinc acetate, 200 nM TF, 25 C, 1 h; high values mean tight binding
Conditions: protein: recombinant; tags: N-terminal polyhistidine and DsRed monomer fusion (pET32a); chain copies: 2; label: CyDye5-dUTP incorporated in the synthesized complementary strand; 3' TTTTT single-stranded linker to array surface; dsDNA, one strand shown
Procedure, shortened: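 Binding signal here means per-feature fluorescence intensity in arbitrary units. The values were read on an Axon 4000B scanner after a custom Agilent array, double-stranded by primer extension with Cy5-dUTP, was incubated with 200 nM protein at 25 °C for 1 h in PBS with 2% BSA, salmon testes DNA and 50 µM zinc acetate, then washed. The proteins were transcription factors with an N-terminal polyhistidine tag and DsRed, expressed in E. coli BL21-CodonPlus and purified on Ni–NTA.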

| Sequence | binding signal |
| --- | --- |
| TATGTTGCCTTCTTCTGCCTTATCAAGTCACATTATATTGCGGAGTCACCTAGTGCAG | 4660 fluorescence intensity (a.u.) |
| GTTAGCTAGCAAATATTCAGACGCACGCAATGCGTCATGCCGGAGTCACCTAGTGCAG | 3740 fluorescence intensity (a.u.) |
| GCCTCGTCGACCTCGTCACCTCGCCGTGGCCCGCCCGCGTCGGAGTCACCTAGTGCAG | 6660 fluorescence intensity (a.u.) |
| TCCACCTCCGTGCCACCTCATCGCCGGTGCCAACCTCCGGCGGAGTCACCTAGTGCAG | 13100 fluorescence intensity (a.u.) |
| GGTTTGCTAAAAGTCTTCAGAATTCAGGGCTTATACAAATCGGAGTCACCTAGTGCAG | 3160 fluorescence intensity (a.u.) |
| GGAAACTGGTGGGGTGGGAGTCGCCACGACACGCGGCGACCGGAGTCACCTAGTGCAG | 4220 fluorescence intensity (a.u.) |
| AGCCTGCCTCCATCACGACCACGACGTACTCACAACCTCGCGGAGTCACCTAGTGCAG | 3500 fluorescence intensity (a.u.) |
| GCGAACACTGAGGTGTTGACGTTGCGCTCCGCCTCGCTGTCGGAGTCACCTAGTGCAG | 3840 fluorescence intensity (a.u.) |
| ACATACAACTATATTGACAAGTGTGCCAACTCAGTGGGTGCGGAGTCACCTAGTGCAG | 5670 fluorescence intensity (a.u.) |
| TACGAAATATGACACATCATTATTTAAATAAATCAATCTCCGGAGTCACCTAGTGCAG | 7630 fluorescence intensity (a.u.) |
| CATGTCGATCGCCACCACGCGTGCCACGGCGGCCAAGATGCGGAGTCACCTAGTGCAG | 6840 fluorescence intensity (a.u.) |
| CACCATGCATAAATCATAATGCTGGACTTTTAGATCTTCGCGGAGTCACCTAGTGCAG | 19800 fluorescence intensity (a.u.) |
| AAATCCCCGCCGCGCTGACTCCGCCCCGCGATTCCCCGCCCGGAGTCACCTAGTGCAG | 5020 fluorescence intensity (a.u.) |
| TTAGGTACATAAGGAAATCTGCTGCATTCACGCGTGGCATCGGAGTCACCTAGTGCAG | 37500 fluorescence intensity (a.u.) |
| TTCTTCCCGTGCCACGTCCAAGTCACCGCATGATCCATGGCGGAGTCACCTAGTGCAG | 8040 fluorescence intensity (a.u.) |
| TCTTATCAAGACACTCTGACTCACCCACTTCCTAAGCTCTCGGAGTCACCTAGTGCAG | 11100 fluorescence intensity (a.u.) |
| CCGCGTGGGTCCAACTTGCCATGTCAGCCAAAACCAGCCACGGAGTCACCTAGTGCAG | 6030 fluorescence intensity (a.u.) |
| GGGAGACTGGAGAGGAGGGGAGAGGAGATGGTGGCCTGGCCGGAGTCACCTAGTGCAG | 26800 fluorescence intensity (a.u.) |
| CCGGATGACATGATGACACCGCTACCCATTAAGTTTCGTCCGGAGTCACCTAGTGCAG | 4050 fluorescence intensity (a.u.) |
| GGGATGTGACATATTAGGCCATTCCTAACCCAATAATTAGCGGAGTCACCTAGTGCAG | 3560 fluorescence intensity (a.u.) |
| GAGAGAATGAAGCCGGTATATCATCGCTCACAGTGGTTGCCGGAGTCACCTAGTGCAG | 3240 fluorescence intensity (a.u.) |

| Sequence | binding signal |
| --- | --- |
| AACTAGCAGATCTACGTAGTTACCGATATCTACAATACGCCGGAGTCACCTAGTGCAG | 4010 fluorescence intensity (a.u.) |
| TGTTGTTCTACATAAACAATGCTGACTACACCAAATCCGACGGAGTCACCTAGTGCAG | 4710 fluorescence intensity (a.u.) |
| CGGCCAACCGGTGCGGGCTCTGACGCTGAACTCCATCAACCGGAGTCACCTAGTGCAG | 3220 fluorescence intensity (a.u.) |
| TCGCCTGCGCCTGGCACCGCACACCGCCGACGAGGCCACGCGGAGTCACCTAGTGCAG | 4240 fluorescence intensity (a.u.) |
| GCCAGCCACCGCCACTTCCCCTCGTTGTCTCGCCACCTCCCGGAGTCACCTAGTGCAG | 3400 fluorescence intensity (a.u.) |
| CCTCTTCTGTTCCGACTCCCGTAGGACACTTCAAAATCAACGGAGTCACCTAGTGCAG | 13200 fluorescence intensity (a.u.) |
| TCTGCAATTTAACACTGACTGACGTGTACCCAGCGAGTAGCGGAGTCACCTAGTGCAG | 11800 fluorescence intensity (a.u.) |
| TCTCCTGCGCCATGCCTATGTCAACCAAGACCGCAGTCCTCGGAGTCACCTAGTGCAG | 3630 fluorescence intensity (a.u.) |
| TTGCAGCATCACCTGGCGAGGCGTAGCTAGGAGATGCAGACGGAGTCACCTAGTGCAG | 40100 fluorescence intensity (a.u.) |
| GCCGTCGCCATCGCCGTAGCGTCGCCGTCTCCGAGCGCCTCGGAGTCACCTAGTGCAG | 3530 fluorescence intensity (a.u.) |
| TTGACCTGCTCCCACGTCAGCGTCGGCTCACCCCATCTGCCGGAGTCACCTAGTGCAG | 31400 fluorescence intensity (a.u.) |
| TAGGCAAAGGGAGGCGAGGAGAAATACGGCATGCATGTTGCGGAGTCACCTAGTGCAG | 3170 fluorescence intensity (a.u.) |
| TTGGTGACTAAGCAGCTAGCTCATATTCCGTTTCAGCTTCCGGAGTCACCTAGTGCAG | 6500 fluorescence intensity (a.u.) |
| TATATACTCAAATAGAATCATGATACGTCACATACCTACCCGGAGTCACCTAGTGCAG | 3720 fluorescence intensity (a.u.) |
| CTCTGTGCTGAAATGGTTAGGTATGTTTTCTTTCTGCTCTCGGAGTCACCTAGTGCAG | 40700 fluorescence intensity (a.u.) |
| ACAGAGGGAGGCGAATTTAACCCTAGCTAGCGTGTTCCCCCGGAGTCACCTAGTGCAG | 28500 fluorescence intensity (a.u.) |
| CACGTAGAATCCACATATGGTGACATGGGATCCACGTGGCCGGAGTCACCTAGTGCAG | 19500 fluorescence intensity (a.u.) |
| AGTATATCCTAAAGCGACACTTTACAGTCTCAAGGACATCCGGAGTCACCTAGTGCAG | 11200 fluorescence intensity (a.u.) |
| AAGTCTTCTTTCATCTCACCACGTCACTTTTGGTCCATAGCGGAGTCACCTAGTGCAG | 9260 fluorescence intensity (a.u.) |
| ATCGGCTTATGAAAACGTTGAATCGAGCGTGCTCAACTGGCGGAGTCACCTAGTGCAG | 3190 fluorescence intensity (a.u.) |
| TCTTCTGAGTTCTTGTGTTTTCATACGTGCCAATCAAATGCGGAGTCACCTAGTGCAG | 4130 fluorescence intensity (a.u.) |

Given bar-delimited: entries from further up
Sequence | binding signal
TCCACCTCCGTGCCACCTCATCGCCGGTGCCAACCTCCGGCGGAGTCACCTAGTGCAG | 13100 fluorescence intensity (a.u.)
GGTTTGCTAAAAGTCTTCAGAATTCAGGGCTTATACAAATCGGAGTCACCTAGTGCAG | 3160 fluorescence intensity (a.u.)
